The values that follow come from patent US20250269047A1.

These are yes or no findings as the source states them, for the method shown. Some binding calls cover weakened binding; strength is not graded here.

The target of this assay is T1, full-length human B7-H3 (UniProtKB-Q5ZPR3, 1 aa-534 aa) transiently expressed on HEK293 cells (human) (UniProt Q5ZPR3).
T1 sequence (looked up): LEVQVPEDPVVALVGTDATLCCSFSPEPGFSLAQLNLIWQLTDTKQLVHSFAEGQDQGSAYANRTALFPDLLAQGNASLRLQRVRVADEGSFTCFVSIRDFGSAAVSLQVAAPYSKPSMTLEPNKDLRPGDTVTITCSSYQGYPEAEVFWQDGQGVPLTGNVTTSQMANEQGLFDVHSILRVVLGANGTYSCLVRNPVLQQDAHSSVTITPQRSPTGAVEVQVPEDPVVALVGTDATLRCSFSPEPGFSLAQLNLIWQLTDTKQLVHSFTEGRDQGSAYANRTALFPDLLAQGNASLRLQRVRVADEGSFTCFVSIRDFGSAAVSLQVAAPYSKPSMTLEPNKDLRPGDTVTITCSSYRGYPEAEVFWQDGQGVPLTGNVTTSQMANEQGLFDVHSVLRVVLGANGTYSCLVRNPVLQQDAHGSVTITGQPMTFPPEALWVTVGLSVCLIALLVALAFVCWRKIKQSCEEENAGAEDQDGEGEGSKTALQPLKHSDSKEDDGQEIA
The assay can be described thus: FACS on 293/hB7-H3 cells, 1, 0.1 and 0.01 µg/ml.

B1: ch17A3 (antibody, human IgG1, V domains shown)
VH: QVQLQQSGPELVRPGVSVKISCKGSGYTFTDYALHWVKQSHAKSPQWIGLINTYSSNTNYNQKFKDKATMTVDKSSSTAYMELARLTSEDSAIYYCARGITAVVGTRYYAMDYWGQGTSVTVSS
VL: NIVLTQSPTTLSVTPGDTVSLSCRASQSISNNLHWYQQRSHESPRLIIKYTSQNISGIPSRFSGSGSGTDFTLSINSVETEDFGMYFCQQSYSWPLTFGAGTKLELKR
Take B1: the binding entry is given as “binds”.
